Assay [1] concerns the target EGFP-TCRP1 (tongue cancer resistance-related protein 1) (human) (UniProt Q92567). The assay is described as follows: FRET or BRET; live NIH/3T3 or 293T (HEK293) cells co-transfected with EGFP and DsRed fusions; 48 h after transfection, room temperature; 130 mM NaCl, 5 mM MgCl2, 2 mM CaCl2, 5 mM HEPES, 1 mM EGTA, pH 7.4; quenching of GFP monitored during DsRed photobleaching.

Chains of the proteins cited; added tags and fusions are not shown. Lines headed by an entry give the natural chain unless they say otherwise; changes in a name come on top.
UniProt Q92567: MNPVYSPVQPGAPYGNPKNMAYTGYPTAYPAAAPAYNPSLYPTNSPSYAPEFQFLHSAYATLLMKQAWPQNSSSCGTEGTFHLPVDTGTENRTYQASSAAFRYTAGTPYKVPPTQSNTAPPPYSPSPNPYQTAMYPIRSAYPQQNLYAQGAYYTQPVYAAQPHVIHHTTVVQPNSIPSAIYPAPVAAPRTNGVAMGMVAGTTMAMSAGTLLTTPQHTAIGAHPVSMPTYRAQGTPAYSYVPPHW
UniProt P31749: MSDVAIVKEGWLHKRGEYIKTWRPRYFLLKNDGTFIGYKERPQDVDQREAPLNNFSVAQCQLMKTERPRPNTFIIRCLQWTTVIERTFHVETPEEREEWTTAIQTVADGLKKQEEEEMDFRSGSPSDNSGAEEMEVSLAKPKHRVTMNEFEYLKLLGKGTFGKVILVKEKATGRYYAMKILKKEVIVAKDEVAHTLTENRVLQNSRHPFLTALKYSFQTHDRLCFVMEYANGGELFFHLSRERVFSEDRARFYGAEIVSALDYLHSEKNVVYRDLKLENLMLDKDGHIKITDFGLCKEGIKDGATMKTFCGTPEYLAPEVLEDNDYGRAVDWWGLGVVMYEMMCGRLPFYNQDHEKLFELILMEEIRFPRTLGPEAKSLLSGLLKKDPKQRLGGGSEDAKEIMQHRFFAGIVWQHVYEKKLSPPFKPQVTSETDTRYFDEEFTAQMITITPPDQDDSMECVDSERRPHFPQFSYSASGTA

Assay [2] addresses EGFP-TCRP1/mut1 (deletion mutant of TCRP1) (human) (UniProt Q92567). The experiment in a line: co-IP; total protein extracts of NIH/3T3 cells (untransfected as told, or transfected with pEGFP-TCRP1/mut1 or mut2); IP with TCRP1 antibody or control IgG and blot for PDK1, and the reverse; co-IP buffer 10 mM HEPES pH 8.0, 300 mM NaCl, 0.1 mM EDTA, 20% glycerol, 0.2% NP-40; 4 °C overnight; Protein A/G gel, 6 washes.

In assay [3] the target is EGFP-TCRP1/mut2 (deletion mutant of TCRP1) (human) (UniProt Q92567). The description is as above.
The target in assay [4] is EGFP-TCRP1/mut1 (deletion mutant of TCRP1) (human) (UniProt Q92567). The experiment in a line: FRET or BRET; live NIH/3T3 or 293T (HEK293) cells co-transfected with EGFP and DsRed fusions; 48 h after transfection, room temperature; 130 mM NaCl, 5 mM MgCl2, 2 mM CaCl2, 5 mM HEPES, 1 mM EGTA, pH 7.4; quenching of GFP monitored during DsRed photobleaching. In general terms: BRET reads energy transfer from a luciferase to a nearby fluorophore.

Assay [5] addresses EGFP-TCRP1/mut2 (deletion mutant of TCRP1) (human) (UniProt Q92567). Described as above.

Experimental findings from publication PMC5520495 are described below.

These are yes or no findings as the source states them, for the method shown. Binding seen in cells or lysates may run through a third protein. For part of these data: Binding calls can cover weak binding; strength is not graded here.

Consider “DsRed-Akt1 (from UniProt P31749 1-480) (enzyme)”, for which the binding result in assay [1] is “no binding”.

B1: PDK1 in total protein extracts of NIH/3T3 cells (enzyme, UniProt Q9Z2A0 1-559)
chain: MARTTSQLYDAVPIQSSVVLCSCPSPSMVRSQTEPGSSPGIPSGVSRQGSTMDGTTAEARPSTNPLQQHPAQLPPQPRKKRPEDFKFGKILGEGSFSTVVLARELATSREYAIKILEKRHIIKENKVPYVTRERDVMSRLDHPFFVKLYFTFQDDEKLYFGLSYAKNGELLKYIRKIGSFDETCTRFYTAEIVSALEYLHGKGIIHRDLKPENILLNEDMHIQITDFGTAKVLSPESKQARANSFVGTAQYVSPELLTEKSACKSSDLWALGCIIYQLVAGLPPFRAGNEYLIFQKIIKLEYHFPEKFFPKARDLVEKLLVLDATKRLGCEEMEGYGPLKAHPFFETITWENLHQQTPPKLTAYLPAMSEDDEDCYGNYDNLLSQFGFMQVSSSSSSHSLSTVETSLPQRSGSNIEQYIHDLDTNSFELDLQFSEDEKRLLLEKQAGGNPWHQFVENNLILKMGPVDKRKGLFARRRQLLLTEGPHLYYVDPVNKVLKGEIPWSQELRPEAKNFKTFFVHTPNRTYYLMDPSGNAHKWCRKIQEVWRQQYQSNPDAAVQ
Take B1: the binding entry in assay [2] and in assay [3] was “no binding” in each case.

B2: DsRed-PDK1 (3-phosphoinositide-dependent protein kinase-1) (enzyme, UniProt O15530 1-556)
chain: MARTTSQLYDAVPIQSSVVLCSCPSPSMVRTQTESSTPPGIPGGSRQGPAMDGTAAEPRPGAGSLQHAQPPPQPRKKRPEDFKFGKILGEGSFSTVVLARELATSREYAIKILEKRHIIKENKVPYVTRERDVMSRLDHPFFVKLYFTFQDDEKLYFGLSYAKNGELLKYIRKIGSFDETCTRFYTAEIVSALEYLHGKGIIHRDLKPENILLNEDMHIQITDFGTAKVLSPESKQARANSFVGTAQYVSPELLTEKSACKSSDLWALGCIIYQLVAGLPPFRAGNEYLIFQKIIKLEYDFPEKFFPKARDLVEKLLVLDATKRLGCEEMEGYGPLKAHPFFESVTWENLHQQTPPKLTAYLPAMSEDDEDCYGNYDNLLSQFGCMQVSSSSSSHSLSASDTGLPQRSGSNIEQYIHDLDSNSFELDLQFSEDEKRLLLEKQAGGNPWHQFVENNLILKMGPVDKRKGLFARRRQLLLTEGPHLYYVDPVNKVLKGEIPWSQELRPEAKNFKTFFVHTPNRTYYLMDPSGNAHKWCRKIQEVWRQRYQSHPDAAVQ
On to B2, for which the binding result in assay [1] was “binds”; in assay [4] it was “no binding”; in assay [5], “no binding”.
